Laboratory results taken from the supplement of paper PMC11006884.
The entries are a selection whose mix differs from that of the whole data set.

Compound: COC(=O)C#Cc1ccccc1 [methyl 3-phenylpropiolate]
Experiment: log2 ratio of iodoacetamide-alkyne labeling of the cysteine site, DMSO over compound (competition); higher = stronger covalent engagement of the cysteine by the compound, active = 1 or more
Conditions: 500 µM; treatment time 1 h; system: HEK293T cell lysate
Summary of the method: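 Reporter intensities give each cysteine's log2 competition ratio as the mean of control channels over the mean of compound channels. The samples were HEK293T lysate (2 mg/mL) given vehicle or electrophile (500 µM, 1 h, ambient temperature), then iodoacetamide alkyne (1 h), followed by click coupling to sCIP-TMT reagents, pooling, trypsin digestion overnight at 37 °C, streptavidin enrichment, acid elution, Orbitrap Eclipse LC-MS/MS with FAIMS and FragPipe quantification. Duplicate channels and three replicates were run, and cysteines quantified in only one replicate were discarded.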

Target	log2 ratio of iodoacetamide-alkyne labeling
PIP5K1A C480 (UniProt Q99755)	inactive: 0.429
MARK4 C216 (UniProt Q96L34)	inactive: 0.33
UniProt Q96TA1_C154	inactive: 0.644
CDC5L C769 (UniProt Q99459)	inactive: 0.143
ARAP1 C774 (UniProt Q96P48)	inactive: 0.384
CRBN C188 (UniProt Q96SW2)	inactive: 0.148
FUBP3 C125 (UniProt Q96I24)	inactive: 0.341
ELAC2 C441 (UniProt Q9BQ52)	inactive: 0.346
UniProt Q96JM3_C194	inactive: 0.155
ACO2 C451 (UniProt Q99798)	inactive: 0.28
FUBP3 C460 (UniProt Q96I24)	inactive: 0.36
EP400 C694 (UniProt Q96L91)	inactive: 0.26
ACO2 C385 (UniProt Q99798)	active: 1.66
GRWD1 C299 (UniProt Q9BQ67)	inactive: 0.364
FNBP1 C130 (UniProt Q96RU3)	inactive: 0.489
PSMB7 C74 (UniProt Q99436)	inactive: 0.177
AHCYL2 C353 (UniProt Q96HN2)	active: 1.13
DNAJC7 C317 (UniProt Q99615)	inactive: -0.15
TUBA1C C295 (UniProt Q9BQE3)	inactive: 0.453

Target	log2 ratio of iodoacetamide-alkyne labeling
MYBBP1A C305 (UniProt Q9BQG0)	inactive: 0.0664
MYBBP1A C678 (UniProt Q9BQG0)	inactive: -0.109
CRBN C441 (UniProt Q96SW2)	inactive: 0.0886
PBK C112 (UniProt Q96KB5)	inactive: 0.35
NUDCD1 C7 (UniProt Q96RS6)	inactive: 0.0748
RSF1 C1018 (UniProt Q96T23)	inactive: 0.251
PASK C15 (UniProt Q96RG2)	inactive: 0.404
PSMD1 C633 (UniProt Q99460)	inactive: 0.286
CPNE1 C4 (UniProt Q99829)	inactive: -0.0709
WDR24 C587 (UniProt Q96S15)	inactive: -0.237
UHRF1 C410 (UniProt Q96T88)	inactive: 0.266
UniProt Q9BPU6_C22	inactive: -0.0781
UniProt Q96SY0_C193	inactive: 0.38
MMS19 C331 (UniProt Q96T76)	inactive: 0.00283
NSD1 C1689 (UniProt Q96L73)	inactive: 0.216
RSF1 C404 (UniProt Q96T23)	inactive: 0.512
PGAM5 C168 (UniProt Q96HS1)	inactive: 0.007
SH3GL1 C277 (UniProt Q99961)	inactive: 0.344

Part of the list above, with each value named:
PASK C15 (UniProt Q96RG2)
  log2 ratio of iodoacetamide-alkyne labeling: inactive: 0.404
SH3GL1 C277 (UniProt Q99961)
  log2 ratio of iodoacetamide-alkyne labeling: inactive: 0.344
